Measured values: patent US20200355686A1
These are yes or no findings as the source states them, for the method shown. Some entries that bind do so weakly or less than the wild type.

Amino acid sequences for entries named in this document (tags omitted). A change or cut given only in a name is not applied to a line headed by its entry.
UniProt Q9Y618: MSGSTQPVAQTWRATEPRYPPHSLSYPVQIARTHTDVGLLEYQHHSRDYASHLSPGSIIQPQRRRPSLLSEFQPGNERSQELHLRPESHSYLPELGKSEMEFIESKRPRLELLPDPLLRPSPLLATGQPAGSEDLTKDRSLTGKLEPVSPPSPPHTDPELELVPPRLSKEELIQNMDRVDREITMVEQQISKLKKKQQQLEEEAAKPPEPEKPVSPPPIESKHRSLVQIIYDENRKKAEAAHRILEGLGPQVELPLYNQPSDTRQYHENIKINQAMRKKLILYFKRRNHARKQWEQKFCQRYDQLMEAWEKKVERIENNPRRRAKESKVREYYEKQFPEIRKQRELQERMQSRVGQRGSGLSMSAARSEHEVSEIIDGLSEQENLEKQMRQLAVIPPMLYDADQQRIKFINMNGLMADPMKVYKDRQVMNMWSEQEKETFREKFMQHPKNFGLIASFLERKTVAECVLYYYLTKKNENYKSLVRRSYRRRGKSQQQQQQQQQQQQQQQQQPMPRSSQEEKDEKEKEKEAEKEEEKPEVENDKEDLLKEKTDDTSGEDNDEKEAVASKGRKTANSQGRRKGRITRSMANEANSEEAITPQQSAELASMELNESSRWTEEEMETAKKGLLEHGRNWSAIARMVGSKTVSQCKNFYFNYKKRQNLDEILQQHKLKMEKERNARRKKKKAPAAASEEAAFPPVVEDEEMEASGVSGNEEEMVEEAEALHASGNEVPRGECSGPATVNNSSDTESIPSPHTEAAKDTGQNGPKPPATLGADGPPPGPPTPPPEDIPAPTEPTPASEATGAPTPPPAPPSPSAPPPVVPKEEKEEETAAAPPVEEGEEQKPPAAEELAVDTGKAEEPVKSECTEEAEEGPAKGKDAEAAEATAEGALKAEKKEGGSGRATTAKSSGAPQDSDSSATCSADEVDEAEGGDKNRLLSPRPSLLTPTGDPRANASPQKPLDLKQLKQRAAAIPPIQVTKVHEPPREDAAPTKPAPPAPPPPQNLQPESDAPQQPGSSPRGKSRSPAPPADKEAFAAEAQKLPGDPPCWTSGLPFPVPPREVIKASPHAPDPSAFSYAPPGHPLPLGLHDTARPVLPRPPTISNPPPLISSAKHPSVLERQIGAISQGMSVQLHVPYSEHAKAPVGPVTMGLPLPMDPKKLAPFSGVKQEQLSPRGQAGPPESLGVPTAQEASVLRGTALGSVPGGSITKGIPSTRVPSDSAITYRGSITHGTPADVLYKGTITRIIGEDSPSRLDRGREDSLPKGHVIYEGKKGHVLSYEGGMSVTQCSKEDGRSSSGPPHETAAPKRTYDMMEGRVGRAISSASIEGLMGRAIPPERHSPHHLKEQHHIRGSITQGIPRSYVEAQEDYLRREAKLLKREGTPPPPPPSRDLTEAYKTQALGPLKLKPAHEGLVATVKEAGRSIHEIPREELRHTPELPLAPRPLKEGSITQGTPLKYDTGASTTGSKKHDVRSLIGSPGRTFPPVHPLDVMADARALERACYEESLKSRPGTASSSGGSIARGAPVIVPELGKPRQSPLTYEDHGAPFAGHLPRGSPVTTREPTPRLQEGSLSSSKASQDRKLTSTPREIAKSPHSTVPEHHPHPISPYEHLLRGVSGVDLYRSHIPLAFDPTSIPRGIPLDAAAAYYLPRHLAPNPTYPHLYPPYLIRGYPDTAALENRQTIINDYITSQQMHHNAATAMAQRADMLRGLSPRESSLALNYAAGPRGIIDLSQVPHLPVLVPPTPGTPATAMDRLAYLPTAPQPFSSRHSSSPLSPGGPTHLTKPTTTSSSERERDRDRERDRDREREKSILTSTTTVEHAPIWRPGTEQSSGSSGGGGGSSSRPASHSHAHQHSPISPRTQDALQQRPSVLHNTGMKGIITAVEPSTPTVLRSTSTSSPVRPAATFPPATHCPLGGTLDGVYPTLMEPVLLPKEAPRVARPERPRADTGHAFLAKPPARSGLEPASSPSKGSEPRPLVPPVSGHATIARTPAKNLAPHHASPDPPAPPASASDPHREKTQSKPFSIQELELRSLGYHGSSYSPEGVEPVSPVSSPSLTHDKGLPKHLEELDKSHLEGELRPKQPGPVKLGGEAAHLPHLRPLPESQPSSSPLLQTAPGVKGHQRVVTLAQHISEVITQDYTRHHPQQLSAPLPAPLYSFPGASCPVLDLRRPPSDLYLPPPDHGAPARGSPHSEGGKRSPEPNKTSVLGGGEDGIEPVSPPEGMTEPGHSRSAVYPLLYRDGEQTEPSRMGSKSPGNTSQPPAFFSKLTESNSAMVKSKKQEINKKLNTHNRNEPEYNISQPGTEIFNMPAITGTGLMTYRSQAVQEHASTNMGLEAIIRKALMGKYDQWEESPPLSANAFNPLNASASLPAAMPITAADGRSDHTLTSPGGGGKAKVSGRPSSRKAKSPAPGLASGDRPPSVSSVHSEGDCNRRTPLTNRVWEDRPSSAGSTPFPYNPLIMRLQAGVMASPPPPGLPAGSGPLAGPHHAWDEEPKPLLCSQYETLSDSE

How the values were obtained:
[1] = biological target: BQ323636.1 splice variant of NCOR2 (human) (UniProt Q9Y618); assay: western blot, antibody dilution 1:1000
[2] = biological target: BQ323636.1 splice variant of NCOR2 (human) (UniProt Q9Y618); assay: immunofluorescence staining of fixed cells (the methods in paragraph 127 name clone D12 as primary antibody); consistent with IHC

binding [1]: binds | binding [2]: binds
B1: mouse monoclonal antibody specific to BQ323636.1 (the monoclonal antibody of the present invention, clone not named) (antibody, V domains shown)
VH: EVKLEESGGGLVQPGGSMKLSCVASGFTFSNYWMNWVRQSPEKGLEWVAEIRLRSSYYATHYAESVKGRFTISRDDSKSSVYLQMNNLRAEDTGIYYCTMITTGYFDVWGAGTTVTVSS
VL: DVVMTQTPLSLPVSLGDQASISCRSSQSLIHSNGNTYLHWYLQKPGQSPKLLIYKVSNRFSGVPDRFSGSGSGTDFTLKISRVEAEDLGVYFCSQITHIPRTFGGGTKLEIKR
